Assay results: PubChem BioAssay AID328 (DTP/NCI, 2004)
The list is a part of this screen's results and no random one: it is rich in T/C values a quarter to a half above the control, in often repeated tests (any T/C) and in doses without a T/C. Other doses and runs of a compound stand elsewhere. T/C gives the treated animals as a percentage of the vehicle group. Some doses have a count of surviving animals in place of a T/C: the source holds a T/C of zero for them, seemingly a mark for toxic or unscored doses. Some doses without a T/C left all or most animals alive at the check, yet need not have been tolerated: the source hardly ever lists a survival T/C far under the control, and the zero likely stands for such cases as well. Counts of survivors are from the toxicity check (mostly the fifth day) where no day follows; animals may have died later. Schedule codes are those of the source, taken here to give the interval after Q, in days (D) or hours (H), and the number of doses after X. Signs of the kind (2×) say how often a value occurs here. Some entries hold several experiments; their values stand side by side, smallest first. Where survival is the endpoint, this PubChem deposit counts one and a half times the control or more as active, and values a quarter to a half above the control carry no call in these data; other NCI protocols may use other cut-offs. Some T/C values carry the count of animals alive at the toxicity check (mostly the fifth day); without a count, all were alive then. Starred links: 1 amine or outer side, 2 acyl side, 3 side chain; linkers in the order of their positions; H or OH if unused. Positions of bridges follow the written chain, without caps; N, C: chain ends. Non-standard residues stand in square brackets, D forms with d. Residues, ends and D or L forms follow the SMILES beside them. Chains are numbered I, II in the order given. Actinocin(9to1) = Cc1c2oc3c(C)ccc(C(=O)[*:1])c3nc-2c(C(=O)[*:2])c(N)c1=O; aThr = C[C@H](O)[C@H](N)C(=O)O; NMeV = CN[C@H](C(=O)O)C(C)C; Sar = CNCC(=O)O

Test system: BDF1 mice, P388 leukemia ip, median survival T/C
Assay: NCI In Vivo Anticancer Drug Screen. Data for tumor model P388 Leukemia (intraperitoneal) in B6D2F1 (BDF1) mice
Conditions: T/C endpoint: median survival time, higher T/C = longer survival
In short: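 Steps: implant the tumour, treat one group with compound and another with vehicle, record survival, then divide treated by control.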

[1] = dose: 0.86 mg/kg/injection, schedule: Q01DX001 (ip), vehicle: saline

In the case of `Cc1c2oc3c(C)ccc(C(=O)N[C@@H]4C(=O)N[C@H](C(C)C)C(=O)N5CCC[C@H]5C(=O)N(C)CC(=O)N(C)[C@@H](C(C)C)C(=O)O[C@H]4C)c3nc-2c(C(=O)N[C@@H]2C(=O)N[C@H](C(C)C)C(=O)N3CCC[C@H]3C(=O)N(C)CC(=O)N(C)[C@@H](C(C)C)C(=O)O[C@H]2C)c(N)c1=O` (I: [aThr][dV]P[Sar][NMeV] / II: [aThr][dV]P[Sar][NMeV]; ester I:1-I:C, II:1-II:C; linker I:N-II:N via Actinocin(9to1)), the T/C (dose: 0.02 mg/kg/injection, schedule: Q01DX009 (ip), vehicle: water, evaluated on day 5) was 220 and 317 % of control, the T/C (dose: 0.02 mg/kg/injection, schedule: Q01DX009 (ip), vehicle: water, evaluated on day 92) was 220 % of control [7 of 8 alive] and the T/C (dose: 0.02 mg/kg/injection, schedule: Q01DX009 (ip), vehicle: water, evaluated on day 93) was 317 % of control. The T/C (dose: 0.03 mg/kg/injection, schedule: Q01DX009 (ip), vehicle: water, evaluated on day 5) was 279 and 754 % of control, the T/C (dose: 0.03 mg/kg/injection, schedule: Q01DX009 (ip), vehicle: water, evaluated on day 92) was 279 % of control and the T/C (dose: 0.03 mg/kg/injection, schedule: Q01DX009 (ip), vehicle: water, evaluated on day 93) was 754 % of control. The T/C (dose: 0.04 mg/kg/injection, schedule: Q01DX009 (ip), vehicle: water, evaluated on day 5) was 83 and 389 % of control, the T/C (dose: 0.04 mg/kg/injection, schedule: Q01DX009 (ip), vehicle: water, evaluated on day 92) was 389 % of control and the survivor count (dose: 0.04 mg/kg/injection, schedule: Q01DX009 (ip), vehicle: water) was 8 of 8. For the same molecule, the T/C (dose: 0.05 mg/kg/injection, schedule: Q01DX009 (ip), vehicle: water, evaluated on day 5) was 76 and 483 % of control, the T/C (dose: 0.05 mg/kg/injection, schedule: Q01DX009 (ip), vehicle: water, evaluated on day 92) was 483 % of control and the survivor count (dose: 0.05 mg/kg/injection, schedule: Q01DX009 (ip), vehicle: water) was 8 of 8. For the same molecule, the T/C (dose: 0.06 mg/kg/injection, schedule: Q01DX009 (ip), vehicle: water, evaluated on day 5) was 69 and 211 % of control, the T/C (dose: 0.06 mg/kg/injection, schedule: Q01DX009 (ip), vehicle: water, evaluated on day 92) was 211 % of control and the survivor count (dose: 0.06 mg/kg/injection, schedule: Q01DX009 (ip), vehicle: water) was 8 of 8. For the same molecule, the T/C (dose: 0.2 mg/kg/injection, schedule: Q01DX001 (ip), vehicle: water) was 143 % of control, the T/C (dose: 0.2 mg/kg/injection, schedule: Q04DX003 (ip), vehicle: saline) was 140 % of control and the T/C (dose: 0.33 mg/kg/injection, schedule: Q01DX001 (ip), vehicle: saline) was 172, 180, 182, 187, 188, 194 % of control. For the same molecule, the T/C (dose: 0.38 mg/kg/injection, schedule: Q01DX001 (ip), vehicle: saline) was 167, 177, 199, 214, 218 % of control, the T/C (dose: 0.4 mg/kg/injection, schedule: Q01DX001 (ip), vehicle: saline, evaluated on day 5) was 228 % of control and the T/C (dose: 0.4 mg/kg/injection, schedule: Q01DX001 (ip), vehicle: saline, evaluated on day 60) was 210, 218, 228, 235 % of control. The T/C (dose: 0.5 mg/kg/injection, schedule: Q01DX001 (ip), vehicle: saline, evaluated on day 40) was 169 % of control [9 of 10 alive], the T/C (dose: 0.5 mg/kg/injection, schedule: Q01DX001 (ip), vehicle: saline, evaluated on day 60) was 190, 198, 203, 214, 229, 237 % of control and the T/C (dose: 0.57 mg/kg/injection, schedule: Q01DX001 (ip), vehicle: saline) was 175, 206, 216, 219, 223 % of control. The T/C (dose: 0.75 mg/kg/injection, schedule: Q01DX001 (ip), vehicle: saline) was 189 [9 of 10 alive], 190, 193, 199, 213, 262 % of control, the T/C (dose: 0.8 mg/kg/injection, schedule: Q01DX001 (ip), vehicle: saline, evaluated on day 5) was 250 % of control [8 of 9 alive] and the T/C (dose: 0.8 mg/kg/injection, schedule: Q01DX001 (ip), vehicle: saline, evaluated on day 40) was 125 % of control [9 of 10 alive]. The survivor count (dose: 0.8 mg/kg/injection, schedule: Q01DX001 (ip), vehicle: saline) was 3 of 8 and 8 of 10, the T/C (dose: 0.8 mg/kg/injection, schedule: Q01DX001 (ip), vehicle: water) was 129 % of control [9 of 10 alive] and the T/C [1] was 130 [9 of 10 alive], 211, 242, 282 % of control. The survivor count [1] was 9 of 10, the survivor count (dose: 1.0 mg/kg/injection, schedule: Q01DX001 (ip), vehicle: saline) was 4 of 10 and the survivor count (dose: 1.6 mg/kg/injection, schedule: Q01DX001 (ip), vehicle: saline) was 0 of 8. The survivor count (dose: 1.6 mg/kg/injection, schedule: Q01DX001 (ip), vehicle: water) was 1 of 10, the T/C (dose: 6.2 micrograms/kg/injection, schedule: Q01DX009 (ip), vehicle: water) was 144 % of control and the T/C (dose: 6.3 micrograms/kg/injection, schedule: Q04DX003 (ip), vehicle: saline) was 127 % of control. The T/C (dose: 12.5 micrograms/kg/injection, schedule: Q01DX001 (ip), vehicle: saline) was 136 % of control, the T/C (dose: 25.0 micrograms/kg/injection, schedule: Q01DX001 (ip), vehicle: saline) was 145 % of control and the T/C (dose: 38.9 micrograms/kg/injection, schedule: Q04DX003 (ip), vehicle: saline + alcohol) was 134 % of control. The T/C (dose: 64.8 micrograms/kg/injection, schedule: Q04DX003 (ip), vehicle: saline + alcohol) was 141 % of control [7 of 8 alive], the T/C (dose: 75.0 micrograms/kg/injection, schedule: Q04DX003 (ip), vehicle: saline + alcohol) was 139 % of control and the T/C (dose: 100.0 micrograms/kg/injection, schedule: Q01DX009 (ip), vehicle: saline + alcohol, evaluated on day 45) was 339 % of control. The T/C (dose: 100.0 micrograms/kg/injection, schedule: Q01DX009 (ip), vehicle: saline + alcohol, evaluated on day 60) was 104, 115, 312 % of control, the survivor count (dose: 100.0 micrograms/kg/injection, schedule: Q01DX009 (ip), vehicle: saline + alcohol) was 8 of 8 and the survivor count (dose: 100.0 micrograms/kg/injection, schedule: Q01DX009 (ip), vehicle: saline) was 10 of 10. The survivor count (dose: 100.0 micrograms/kg/injection, schedule: Q01DX009 (ip), vehicle: water) was 6 of 6, the survivor count (dose: 100.0 micrograms/kg/injection, schedule: Q01DX010 (ip), vehicle: other) was 6 of 6 and the T/C (dose: 108.0 micrograms/kg/injection, schedule: Q04DX003 (ip), vehicle: saline + alcohol, evaluated on day 45) was 161 and 239 % of control. The T/C (dose: 108.0 micrograms/kg/injection, schedule: Q04DX003 (ip), vehicle: saline + alcohol, evaluated on day 48) was 162 and 210 % of control, the T/C (dose: 108.0 micrograms/kg/injection, schedule: Q04DX003 (ip), vehicle: saline + alcohol, evaluated on day 60) was 150, 189, 207, 216, 247, 262 % of control and the T/C (dose: 112.5 micrograms/kg/injection, schedule: Q04DX003 (ip), vehicle: saline + alcohol) was 146 % of control. The survivor count (dose: 150.0 micrograms/kg/injection, schedule: Q01DX009 (ip), vehicle: saline) was 9 of 10, the T/C (dose: 150.0 micrograms/kg/injection, schedule: Q04DX003 (ip), vehicle: saline + alcohol) was 162, 208, 212, 232, 281 % of control and the T/C (dose: 180.0 micrograms/kg/injection, schedule: Q04DX003 (ip), vehicle: saline + alcohol, evaluated on day 45) was 194 and 276 % of control [7 of 8 alive]. For the same molecule, the T/C (dose: 180.0 micrograms/kg/injection, schedule: Q04DX003 (ip), vehicle: saline + alcohol, evaluated on day 48) was 201 and 210 % of control, the T/C (dose: 180.0 micrograms/kg/injection, schedule: Q04DX003 (ip), vehicle: saline + alcohol, evaluated on day 60) was 205, 209 (2×), 245, 260, 320 % of control and the survivor count (dose: 200.0 micrograms/kg/injection, schedule: Q01DX009 (ip), vehicle: water) was 5 of 6. The T/C (dose: 300.0 micrograms/kg/injection, schedule: Q04DX003 (ip), vehicle: saline + alcohol, evaluated on day 45) was 127 and 232 % of control, the T/C (dose: 300.0 micrograms/kg/injection, schedule: Q04DX003 (ip), vehicle: saline + alcohol, evaluated on day 48) was 210 and 400 % of control and the T/C (dose: 300.0 micrograms/kg/injection, schedule: Q04DX003 (ip), vehicle: saline + alcohol, evaluated on day 60) was 115, 159, 187, 208, 233, 240, 243, 245, 252, 265, 295 % of control. The survivor count (dose: 400.0 micrograms/kg/injection, schedule: Q01DX009 (ip), vehicle: water) was 1 of 6, the survivor count (dose: 400.0 micrograms/kg/injection, schedule: Q01DX010 (ip), vehicle: saline) was 6 of 6 and the T/C (dose: 500.0 micrograms/kg/injection, schedule: Q04DX003 (ip), vehicle: saline + alcohol, evaluated on day 45) was 118 % of control. The T/C (dose: 500.0 micrograms/kg/injection, schedule: Q04DX003 (ip), vehicle: saline + alcohol, evaluated on day 48) was 124 % of control, the T/C (dose: 500.0 micrograms/kg/injection, schedule: Q04DX003 (ip), vehicle: saline + alcohol, evaluated on day 60) was 92, 93, 97, 106 [7 of 8 alive], 126, 254 % of control [7 of 8 alive] and the survivor count (dose: 500.0 micrograms/kg/injection, schedule: Q04DX003 (ip), vehicle: saline + alcohol) was 8 of 8 (2×). The survivor count (dose: 600.0 micrograms/kg/injection, schedule: Q04DX003 (ip), vehicle: saline + alcohol) was 7 of 8 and the survivor count (dose: 600.0 micrograms/kg/injection, schedule: Q04DX003 (ip), vehicle: saline) was 6 of 8 and 8 of 8.
